Laboratory results reported in paper PMC12557800.
Results are given in words; binding and its absence hold for the method and conditions named. In cells and extracts the contact can be indirect. These calls come from enrichment with a bait or labelling near it, and not all partners need be listed. A no says only that the protein was not detected with the bait. Where a sequence is shown, tags or fusion partners need not be part of it. Blank lines part the entries; values can stand above or below the binder they belong to.

Biological target: T1, TMEM217-3xFLAG (mouse, transgene in Tmem217-3xFLAG Tg mice) (mouse) (UniProt Q14AF1)
T1 sequence: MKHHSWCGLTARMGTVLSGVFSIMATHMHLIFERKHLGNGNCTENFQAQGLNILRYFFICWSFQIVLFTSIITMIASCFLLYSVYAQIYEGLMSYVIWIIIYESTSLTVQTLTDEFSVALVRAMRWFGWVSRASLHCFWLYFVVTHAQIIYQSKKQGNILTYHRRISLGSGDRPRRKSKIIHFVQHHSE
Experiment: affinity purification with mass spectrometry; TMEM217-3xFLAG immunoprecipitated with an anti-FLAG antibody from testis lysates of Tmem217 KO; Tg mice (#1-#3), WT testes as control; LC-MS

B3: IFT121 (WDR35), endogenous in mouse testis (protein, UniProt Q8BND3 1-1181)
chain: MFFYLSKKIAVPNNVKLKCISWNKDQGFIACGGEDGLLKVLRLETQTDDSKLRGLAAPSNLSMNQNLEGHSGAVQVVTWNEQYQKLTTSDQNGLIIVWMLYKGSWYEEMINNRNKSVVRSMSWNADGQKICIVYEDGAVIVGSVDGNRIWGKDLKGIQLCHVTWSADSKILLFGMANGEIHIYDNQGNFIMKMKLNCLVNVTGAISIAGIHWYHGTEGYVEPDCPCLAICFDNGRCQIMRHENDQNPVLIDTGMYVVGIQWNHIGSVLAVAGSQKVVTQDKDINIVQFYTPFGEHLGTLKVPGKQMCSLSWEGGGLKIALAVDSFIYFANIRPDYKWGYCSNTVVYAYTRPDRPEYCVVFWDTKNSEKYVKYVKSLISITTCGDFCILATKADENHPQEENEMETFGATFVLVLCNSIGTPLDPKYIDLVPLFVAMTKTHVIAASKEAFYTWQYRVAKKLTALEINQITRSRKEGRERIYHVDDVPSGSVDGVFDYSKAIQGTRDPICAITASDKTLIVGRESGVIQRYSFPNVALIQKYSLDCRACQLSLNCNSSRLAIIDIAGVLTFFDLDTRVTDSTGQQVVGELLKLERKDVWDMKWAKDNPDLFAMMEKTRMYVFRNLDPEEPIQTSGYICNFEDLEIKSVLLDEILKDPEHPSKDYIMNFEIRSLRDSRALIEKVGIEDASQFIEDNPHPRLWRLLAEAALQKLDLYTAQQAFVRCKDYQGIKFVKLLGNLQSESMKQAEVIAYFGRFEDAERMYQDMDRRDLAIGLRMKLGDWFRVLQLLKTGSGDADDSLLEQANNAIGEYFADRQKWQNAVQYYVKGRNQERLAECYYMLEDYEGLETLANSLPENHKLLPEIAQMFVRVGMCEQAVSAFLKCNQPKAAVDTCVHLNQWNKAVELAKSHSMKEIGSLLARYASHLLEKNKTLDAIELYRKASYFFDAAKLMYKIADEEAKKRTKPLRVKKLYVLSALLIEQYHEQMKNAQRGKVKGKNSEATSALAGLLEEEVLSTTSRFTDNAWRGAEAYHFFILAQRQLYEGYVDTALKTALHLRDYEDIIPSVEIYSLLALCACASRAFGTCSKAFIKLESLETLSAEQKQQYEDLALEIFTKHTPKDNRKSELNSLLEGGEGKLPTCIATGSPIIEYQFWVCKVCKHYVLAQEISNYNFCPLCHSSVE
binding: binds

B5: IFT122, endogenous in mouse testis (protein, UniProt Q6NWV3 1-1182)
chain: MRAVLTWRDKAEQCIYDLAFKPDGTQLILAAGNRLLVYDTSDGTLLQPLKGHKDTVYCVAYAKDGKRFASGSADKSIIIWTSKLEGILKYTHNDSIQCVSYNPVTHQLASCSSSDFGLWSPEQKSVSKHKSSSKITCCSWTNDGQYLALGMANGIISIRNKNGEEKVKIERPGGSLSPIWSICWNPSREEHNDILAVADWGQKLSFYQLSGKQIGKDRPLNFDPCCISYFTKGEYILVGGSDKQVSLFTKDGVRLGTVGEQNSWVWTCRVKPDSNYVVVGCQDGTISFYQLIFSTVHGLYKDRYAYRDSMTDVIVQHLITEQKVRIKCRELVKKIAIYKNRLAIQLPEKILIYELYSEDSTDMHYRVKEKIVKKFECNLLVVCADHIILCQEKRLQCLSFSGVKEREWQMESLIRYIKVIGGPAGREGLLVGLKNGQILKIFVDNLFAIVLLKQATAVRCLDMSASRNKLAVVDENDTCLVYDIHTKELLFQEPNANSVAWNTQCEDMLCFSGGGYLNIKASTFPVHQQKLQGFVVGYNGSKIFCLHVFSMSAVEVPQSAPMYQYLDRKMFKEAYQIACLGVTDADWRELAMEALEGLEFETARKAFTRVQDLRYLELISSIEERKKRGETNNDLFLADVFSYQGKFHEAAKLYKRSGHENLALDMYTDLCMFEYAKDFLGSGDPKETKMLITKQADWARNINEPKAAVEMYISAGEHAKAIEISGSHGWVDMLIDIARKLDKAEREPLLMCACYFKKLDSPGYAAETYLKIGDLKSLVQLYVDTKRWDEAFALGEKHPEFKDDVYVPYAQWLAENDRFEEAQKAFHKAGRQGEAVRVLEQLTHNAVVESRFNDAAYYYWMLSMQCLDMAQDPAQKDAMLDKFHHFQHLAELYHGYQTIHRYTEEPFSFDLPETLFNISKFLLHSLTKATPLGISKVNTLFTLAKQSKALGAYKLARHAYDKLRGLQIPARIQKSIELGTLTIRSKPFHDSEELVPLCYRCSTNNPLLNNLGNVCINCRQPFIFSASSYEVLHLVEFYLEEGITDEEAVALIDLEAPRHKREGKWRETSSNNSQTLKLDETMDSIGEDDPFTAKLSFEQGSSEFVPVVVNRSVLRSMSRRDVLIKRWPPPLQWQYFRSLLPDASITMCPSCFQMFHSEDYELLVLQHACCPYCRRRIDDTGP
binding: binds

B6: SLC9C1 (sperm-specific Na+/H+ exchanger), endogenous in mouse testis (protein, UniProt Q6UJY2 1-1175)
chain: MEMEEISENLTASHSIKLTNMWLELLKSVFLSTPQDLPEIILILSLICTVGAFLNMHLKDFPIPLPVILFLIGCCFEILSFASTQIQIYADAIQWMDPDIFFGIFTPVIIFNVAFDMDIYMLQKLFWQILVITIPGFLINYTLILWYLQSVNKLSLKTVPWLLFSAVLISSDPMLTSASIRDLGLSRSLTNLINGESLLTSVLSLVIYSGVVHIRFKSKSVNHTLAHKVMSTAWSYIVESFITGIVFTKVIQLWMATIFGDDVNHITLIFSVLYLIFYVCELVGMSGIFTLATIGLFLNSTSFKPGVEAFLLEFWNCLSFIGFLMVFTFIGLLIPAHTYLHISFSDVYYSLNIYFTLIVLRLLVFLLMSPILSRLGHGFSWRWAFIMVWSEMKGTPNINMALLLAYSDISLGSERERSQILFHGVSVCVITLIVNRFILPMAVTKLGLRDVTSTKYKSVYYTFQHFQELTKSTAMALKFDKDLANADWNMVDNAIILQNPYAMNQEEITEHQKVKCPDCNKEIDETLNIEAMELTNRRLLSAQIASYQRQYRNEVLSQSAVQVLVGAAGSFGEKKGEYMSPENIKNFSESKKLLSFLRKLLLNWVYNTKKDKGVPSRYMFLHACHRIVFTNEFEYTGYLVVLMSTYPMIICWISRLKDIYDNEIKCANYYFLAFYILEALLKVAAMRKEFFSHTWLLFELGITLVGVLDIILIETDSISYNFDLTETVVFMNVIRLLRILRILKLVTPKLLQIIDKRMSQQISFRYSILKGYVQGEMDVLNIIDQIASSKQTKQILLKRVMRNMEHAMKELGYLEYDHPEIAVTMKTKEEINVMLNMAREIVKAFRSKGIIHKVEGTEINKLIMAKKIQVLDLQSVIQPFNVEEAPCNIPWLSEDPEAITFIQEKAKVVTFDCGNNIFEEGDEPEGIYVIISGMVKLKRSKPHLEMERVSAESEIKIHPLPHTEYLLSGEIIGELNCLTKERMQYSATCKTVVETYFIPISHLYEGFEKRCPNMKHKMWQKIGLAITAQKIREHLSFEDWNYKLQLKLCNAFIRDIPKSMKTDIYDETVTHVVLIHGSAEDCQLRKIYKAPFLIPVTCHQIQGMEDFTKVMIIQTSIAVRKFRWNVRKYIPPRRISMKPDSERESFETLDETSEEDNGKKENQENEELIEENINI
binding: binds

The next lines start with the values.

binding: no binding
B1: SLC9B1 (NHA1), endogenous in mouse testis (protein, UniProt Q8C0X2 1-565)
chain: MSEHDVESNKKDDGFQSSVTVEMSKDPDSFHEETVEPKPELKEPEPKEPEPKEPERKEPERKEPERKEPERKEPERKVPGRRETQTKETQTTEIERKETKKKRGTNSYCPPQGTINKTITDGAALIALWTLLWALIGQEVLPGGNLFGLVVIFYSAFLGGKILEFIKIPVVPPLPPLIGMLLAGFTIRNVPIIYEFVHIPTTWSSALRNTALTIILVRAGLGLDPQALKHLKGVCLRLSFGPCFLEACSAALFSHFIMNFPWQWGFLLGFVLGAVSPAVVVPNMLMLQENGYGVEKGIPTLLVAASSMDDIVAITGFNTFLSIVFSSGSVISNILSSLRDVLIGVLVGIVMGVFVQYFPSGDQERLTQRRAFLVLSMCISAVLGCQHIGLHGSGGLVTLVLSFMAAKRWAEEKVGIQKIVANTWNVFQPLLFGLVGTEVSVESLESKTIGMCLATLGLALSVRILSTFVLMSFANFRFKEKVFIALSWIPKATVQAVLGPLALETARVMAPHLEGYAKAVMTVAFLAILITAPNGALLIGILGPKILEQSEVTFPLKVELSNFHH

binding: binds
B2: IFT139 (TTC21B), endogenous in mouse testis (protein, UniProt Q0HA38 1-1315)
chain: MDSQGLKTLINYYCQERYYHHVLLVASEGMKKYSSDPVFRFYHAYGTLMEGKAQEALREFEAIKNKQDVSLCSLMALMYVHKMSPNPDREAILELDTKMKEQRKEAGRKALYHAGLFLWHIGRHDKAREYIDRMSKMPHDSNEGPILKAWLDITRGKEPYAKKALRYFEEGLQDGNDIFALLGKVLCLEIRQNYSGALETVSQIIVNFPSFLPAFEKKMKLQLALQDWDQTVETAQRLLLQDNHNVEALRMLALYYLCREGDVEKAATKLENLGNALDVMEPQNAQLFYKITLAFSRTCGRNQLILQKVQSFLEKAFSLTPQQAEIATELGYQMILQGKVKEAWKWYRTAMTLNESNISAVTGLIRCQLIEGQLQDADQQLEFFSEFQQSMGKSAELMYLHAVLATKKNNRQDEVINLLNDVVNTHFSHLEDLPLGIQYFEKLNPDFLLEVVTEYLNLCPIQPAGPGQPLSPVLRRCSSVLETIIRSVPGLPQAVFLMAKVKYLSGDTEAAYNNLQHCLEHSPSYAEAHLLMAQVYLSQDKVKLCSQSLELCLSYNFNVREYPLYHLIKAQSQKKMGEVAEAIKTLHMAMNLPGMRRSRASSKSKHRTEVDASHRLSIFLELVEVHRLNGEQHEAAKVLQDAIHEFSGTCEELRVTIANADLALAQGDTDRALSMLRNVTTEQPYFIEAKEKMADIYLKHRKEKMLYITCYREIAERMPSPRSFLLLGDAYMNIQEPEEAIVAYEQALNQNPKDGTLARKIGKALVKTHNYSKAITYYEAALKSGQQNCLCYDLAELLLRLKLYEKAEKVLQHSLAHEPVSELSALMVDGRSQVLLAKVYSKMERPSDAIAALQQARELQARILKRVQMEQPDAVPSQKHFAAEICAEIAKHSAAQRDYEKAITFYREALVHCETDSKIMLELAQLYLAQEDLDASLRHCALLLQRDQDNEPATMLMADLMFRKQDYEQAVYHLQQLLDRKPDNFMTLSRLIDLLRRCGKLEDVPRFFLMAEKHNSRTKLEPGFQYCKGLHFWYTGEPNDALRHFNKARKDSDWGQNALYNMIEICLNPDNETIGGEVFENLNGDLGTSPEKQESVQLAVRTAEKLLKELKPQTVQGRLQLRIMENCCLMATKQKSSVEQALNTFTEIAASEKDHIPALLGMATAYMILKQTPKARNQLKRIAKMPWNPIEAEDLEKSWLLLADIYIQSAKYDMAEELLKRCLCHNRSCCKAYEYMGYIMEKEQAYTDAAFNYEMAWKHSNQTNPAVGYKLAFNYLKAKRYVDAIDVCHQVLEAHPTYPKIRKDILDKARASLRP

binding: no binding
B4: SLC9B2 (NHA2), endogenous in mouse testis (protein, UniProt Q5BKR2 1-547)
chain: MEDEDKTAECQHSKPPTGITHEAPPHHELQEERVMSLRGTDRSEPTEGSNLLTSGEKKPQDSPTEPNGLQSLRRFLACPPRGCLARVITNGTMVVLLWAMVWSVTGPECLPGGNLFGIIILFYCSITGGKLFGLIKFPTLPPLPPLLGMLLAGFLLRNIPVINDSVRIQHKWSSSLRSIALSVILVRAGLGLDSKALRKLKGVCVRLAMGPCIVEACASAILSHFLMGLPWQWGFILGFVVGAVSPAVVVPSMLLLQEGGYGVGKGIPTLLMAAGSFDDILAITGFNTCLGVAFSTGSTVFNIFRGILEVVIGVAAGSFLGFFIQYFPSRDQDNLVWKRAFLVLGFAVLAVFSSVYFSFPGSGGLCTLVMAFLAGMRWTDKKSEVEKVIAVTWDVFQPLLFGLIGAEVSIVSLRAETVGLCVATLSIAVLIRILTTFLMVCFAGFNIKEKIFISFAWLPKATVQAAIGSVALDTARSHGEKQLEDYGMDVLTVAFLAILITAPIGSLLIGLLGPRVLQKSEHRTEEEVQGETSAHIQRKPEDSITEA
